These are yes or no findings as the source states them, for the method shown. Binding seen in cells or lysates may run through a third protein. Here binding means that the protein was enriched with, or labelled near, the bait; the list need not be complete.
Biological target: Protein DJ-1 (human (endogenous in MCF7)) (UniProt Q99497)
Assay: affinity purification with mass spectrometry; anti-DJ-1 antibody and Protein A/G PLUS-Agarose on 100 µg nuclear extract of MCF7 cells, 4 °C; SDS-PAGE, gel slices, LC-MS/MS; proteins also found in the Mock-IP (resin only) removed from the list

Amino acid sequences for entries named in this document (tags omitted).
UniProt Q99497: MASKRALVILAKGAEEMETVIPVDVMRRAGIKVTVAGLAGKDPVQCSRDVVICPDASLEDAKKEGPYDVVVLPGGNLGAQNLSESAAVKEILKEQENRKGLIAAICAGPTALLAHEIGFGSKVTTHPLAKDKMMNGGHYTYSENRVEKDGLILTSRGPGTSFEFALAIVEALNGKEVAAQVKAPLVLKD
UniProt P11586: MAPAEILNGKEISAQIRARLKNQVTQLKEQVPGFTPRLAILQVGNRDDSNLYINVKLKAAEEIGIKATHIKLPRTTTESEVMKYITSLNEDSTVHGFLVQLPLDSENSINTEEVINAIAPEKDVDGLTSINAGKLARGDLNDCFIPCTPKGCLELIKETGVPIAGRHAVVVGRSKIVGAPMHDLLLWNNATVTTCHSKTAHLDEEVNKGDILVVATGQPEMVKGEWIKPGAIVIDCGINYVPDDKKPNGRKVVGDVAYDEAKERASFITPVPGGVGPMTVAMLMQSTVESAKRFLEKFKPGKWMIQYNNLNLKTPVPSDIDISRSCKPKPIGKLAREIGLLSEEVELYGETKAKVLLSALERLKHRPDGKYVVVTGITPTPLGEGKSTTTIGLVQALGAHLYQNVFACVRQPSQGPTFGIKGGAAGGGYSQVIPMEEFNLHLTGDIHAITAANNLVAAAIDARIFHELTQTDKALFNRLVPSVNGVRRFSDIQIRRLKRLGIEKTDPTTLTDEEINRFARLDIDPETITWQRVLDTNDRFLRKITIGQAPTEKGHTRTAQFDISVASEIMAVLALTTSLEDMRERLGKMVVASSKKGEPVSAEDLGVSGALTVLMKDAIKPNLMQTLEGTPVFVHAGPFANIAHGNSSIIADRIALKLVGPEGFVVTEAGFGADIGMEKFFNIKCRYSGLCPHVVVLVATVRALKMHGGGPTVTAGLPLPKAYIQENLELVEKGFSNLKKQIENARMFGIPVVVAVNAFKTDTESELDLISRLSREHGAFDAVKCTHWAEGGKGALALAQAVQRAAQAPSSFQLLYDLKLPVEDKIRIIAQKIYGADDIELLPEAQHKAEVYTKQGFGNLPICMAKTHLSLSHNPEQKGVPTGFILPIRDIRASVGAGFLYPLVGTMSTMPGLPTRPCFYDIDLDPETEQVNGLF
UniProt Q00610: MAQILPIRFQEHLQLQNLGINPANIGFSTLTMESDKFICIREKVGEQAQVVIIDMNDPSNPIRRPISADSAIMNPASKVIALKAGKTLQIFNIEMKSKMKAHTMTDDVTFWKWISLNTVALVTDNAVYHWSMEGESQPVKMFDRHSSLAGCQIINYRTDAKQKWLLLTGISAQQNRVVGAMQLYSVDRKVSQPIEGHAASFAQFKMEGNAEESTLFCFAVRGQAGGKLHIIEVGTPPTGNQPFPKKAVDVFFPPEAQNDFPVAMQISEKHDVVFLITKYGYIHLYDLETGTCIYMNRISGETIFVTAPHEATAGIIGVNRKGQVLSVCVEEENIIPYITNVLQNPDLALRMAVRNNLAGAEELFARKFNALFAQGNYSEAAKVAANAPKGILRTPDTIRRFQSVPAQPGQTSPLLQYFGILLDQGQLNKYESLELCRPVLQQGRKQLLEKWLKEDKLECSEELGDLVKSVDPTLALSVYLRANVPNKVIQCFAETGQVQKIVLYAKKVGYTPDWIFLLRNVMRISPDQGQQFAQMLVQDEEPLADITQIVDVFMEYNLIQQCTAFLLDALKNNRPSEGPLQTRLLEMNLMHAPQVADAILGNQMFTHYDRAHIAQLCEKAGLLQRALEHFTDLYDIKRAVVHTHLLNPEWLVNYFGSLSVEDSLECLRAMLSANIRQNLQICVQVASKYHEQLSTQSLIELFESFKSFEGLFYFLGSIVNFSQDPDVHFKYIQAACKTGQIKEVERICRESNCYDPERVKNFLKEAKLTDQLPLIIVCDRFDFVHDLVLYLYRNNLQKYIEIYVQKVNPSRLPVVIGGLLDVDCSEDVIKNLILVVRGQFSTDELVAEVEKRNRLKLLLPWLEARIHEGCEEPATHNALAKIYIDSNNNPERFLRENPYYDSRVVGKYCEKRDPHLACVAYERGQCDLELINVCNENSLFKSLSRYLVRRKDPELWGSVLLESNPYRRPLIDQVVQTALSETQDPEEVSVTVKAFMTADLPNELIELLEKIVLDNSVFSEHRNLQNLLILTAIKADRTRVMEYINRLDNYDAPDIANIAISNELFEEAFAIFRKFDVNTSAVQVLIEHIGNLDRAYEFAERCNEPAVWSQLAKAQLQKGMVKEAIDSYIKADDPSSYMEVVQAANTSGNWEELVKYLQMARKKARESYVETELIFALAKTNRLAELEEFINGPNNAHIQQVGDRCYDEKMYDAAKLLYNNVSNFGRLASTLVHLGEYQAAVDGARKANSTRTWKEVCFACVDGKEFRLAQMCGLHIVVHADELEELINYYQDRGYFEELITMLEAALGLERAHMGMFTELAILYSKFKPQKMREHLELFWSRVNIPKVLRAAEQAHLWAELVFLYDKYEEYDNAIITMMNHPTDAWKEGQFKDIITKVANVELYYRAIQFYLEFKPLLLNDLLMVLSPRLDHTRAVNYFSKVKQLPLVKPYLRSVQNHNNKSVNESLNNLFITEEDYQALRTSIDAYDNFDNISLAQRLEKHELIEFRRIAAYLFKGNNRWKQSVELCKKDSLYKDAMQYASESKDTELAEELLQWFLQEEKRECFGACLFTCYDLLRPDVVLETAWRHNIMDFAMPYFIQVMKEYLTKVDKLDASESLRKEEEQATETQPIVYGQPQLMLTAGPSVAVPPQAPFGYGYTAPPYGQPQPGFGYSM
UniProt Q8TCU6: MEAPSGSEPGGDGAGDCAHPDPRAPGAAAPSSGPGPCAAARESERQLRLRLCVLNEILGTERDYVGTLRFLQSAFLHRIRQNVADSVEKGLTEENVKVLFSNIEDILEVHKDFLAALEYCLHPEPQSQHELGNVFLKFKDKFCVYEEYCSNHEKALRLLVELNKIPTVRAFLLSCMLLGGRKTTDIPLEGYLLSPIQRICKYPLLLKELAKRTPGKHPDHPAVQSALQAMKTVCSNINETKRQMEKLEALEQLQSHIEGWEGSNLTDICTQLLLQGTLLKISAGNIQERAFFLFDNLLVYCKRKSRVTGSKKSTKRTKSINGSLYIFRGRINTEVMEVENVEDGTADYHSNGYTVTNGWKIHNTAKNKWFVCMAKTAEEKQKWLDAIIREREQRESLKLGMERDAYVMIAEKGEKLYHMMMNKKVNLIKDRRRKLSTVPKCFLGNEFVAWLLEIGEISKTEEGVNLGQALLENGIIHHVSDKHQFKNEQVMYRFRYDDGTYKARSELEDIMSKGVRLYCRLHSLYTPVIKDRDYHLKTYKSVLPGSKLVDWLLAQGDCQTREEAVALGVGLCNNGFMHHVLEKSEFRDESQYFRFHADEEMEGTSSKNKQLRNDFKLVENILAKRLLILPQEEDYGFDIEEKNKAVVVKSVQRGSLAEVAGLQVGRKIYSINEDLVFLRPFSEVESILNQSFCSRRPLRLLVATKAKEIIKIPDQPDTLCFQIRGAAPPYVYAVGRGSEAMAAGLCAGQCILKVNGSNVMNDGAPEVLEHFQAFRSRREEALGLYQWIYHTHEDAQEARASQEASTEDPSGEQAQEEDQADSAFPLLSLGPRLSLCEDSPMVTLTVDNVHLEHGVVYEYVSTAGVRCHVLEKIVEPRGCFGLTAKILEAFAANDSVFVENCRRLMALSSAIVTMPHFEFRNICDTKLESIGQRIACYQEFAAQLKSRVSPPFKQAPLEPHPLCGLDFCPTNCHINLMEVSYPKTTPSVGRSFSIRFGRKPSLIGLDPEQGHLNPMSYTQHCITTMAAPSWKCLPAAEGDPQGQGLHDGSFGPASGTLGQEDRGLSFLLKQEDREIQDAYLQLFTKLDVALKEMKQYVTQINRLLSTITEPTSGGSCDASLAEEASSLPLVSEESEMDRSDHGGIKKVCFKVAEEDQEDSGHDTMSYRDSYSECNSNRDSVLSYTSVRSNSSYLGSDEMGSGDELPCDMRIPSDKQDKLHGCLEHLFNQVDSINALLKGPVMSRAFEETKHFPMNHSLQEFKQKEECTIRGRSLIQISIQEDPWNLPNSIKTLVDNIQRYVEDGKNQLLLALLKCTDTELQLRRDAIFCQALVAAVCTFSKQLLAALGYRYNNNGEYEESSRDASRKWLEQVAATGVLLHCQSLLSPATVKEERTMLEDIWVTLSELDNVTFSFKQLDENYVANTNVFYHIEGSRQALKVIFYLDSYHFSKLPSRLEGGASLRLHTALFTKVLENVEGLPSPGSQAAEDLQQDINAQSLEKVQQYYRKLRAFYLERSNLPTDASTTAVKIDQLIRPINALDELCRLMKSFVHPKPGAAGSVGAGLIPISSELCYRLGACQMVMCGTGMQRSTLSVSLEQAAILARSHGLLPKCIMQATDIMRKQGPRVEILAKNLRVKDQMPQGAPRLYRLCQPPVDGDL

Substance | binding
methylenetetrahydrofolate dehydrogenase (from UniProt P11586 1-935) | binds
Clathrin heavy chain 1 (from UniProt Q00610 1-1675) | binds
Phosphatidylinositol 3,4,5-trisphosphate-dependent Rac exchanger 1 protein (from UniProt Q8TCU6 1-1659) | binds
